For the experiment, the target named is SBP-FLNA WT (full length) (human) (UniProt P21333). The experiment can be described thus: pull-down; SBP-FLNA (WT or del41) from transfected HEK293A lysate held on streptavidin beads, then hsSKM or MEF cell lysate, 1 h, 4°C, washed with TBS-0.1% Tx; blot anti-LARP4.

By UniProt entry, the sequences of proteins in these tests, tags left out. Where a name states a change or a piece, a line headed by the entry shows the natural chain unless it says otherwise. Chains listed by the source or under a name are the forms on record and can include a tag or linker.
UniProt P21333: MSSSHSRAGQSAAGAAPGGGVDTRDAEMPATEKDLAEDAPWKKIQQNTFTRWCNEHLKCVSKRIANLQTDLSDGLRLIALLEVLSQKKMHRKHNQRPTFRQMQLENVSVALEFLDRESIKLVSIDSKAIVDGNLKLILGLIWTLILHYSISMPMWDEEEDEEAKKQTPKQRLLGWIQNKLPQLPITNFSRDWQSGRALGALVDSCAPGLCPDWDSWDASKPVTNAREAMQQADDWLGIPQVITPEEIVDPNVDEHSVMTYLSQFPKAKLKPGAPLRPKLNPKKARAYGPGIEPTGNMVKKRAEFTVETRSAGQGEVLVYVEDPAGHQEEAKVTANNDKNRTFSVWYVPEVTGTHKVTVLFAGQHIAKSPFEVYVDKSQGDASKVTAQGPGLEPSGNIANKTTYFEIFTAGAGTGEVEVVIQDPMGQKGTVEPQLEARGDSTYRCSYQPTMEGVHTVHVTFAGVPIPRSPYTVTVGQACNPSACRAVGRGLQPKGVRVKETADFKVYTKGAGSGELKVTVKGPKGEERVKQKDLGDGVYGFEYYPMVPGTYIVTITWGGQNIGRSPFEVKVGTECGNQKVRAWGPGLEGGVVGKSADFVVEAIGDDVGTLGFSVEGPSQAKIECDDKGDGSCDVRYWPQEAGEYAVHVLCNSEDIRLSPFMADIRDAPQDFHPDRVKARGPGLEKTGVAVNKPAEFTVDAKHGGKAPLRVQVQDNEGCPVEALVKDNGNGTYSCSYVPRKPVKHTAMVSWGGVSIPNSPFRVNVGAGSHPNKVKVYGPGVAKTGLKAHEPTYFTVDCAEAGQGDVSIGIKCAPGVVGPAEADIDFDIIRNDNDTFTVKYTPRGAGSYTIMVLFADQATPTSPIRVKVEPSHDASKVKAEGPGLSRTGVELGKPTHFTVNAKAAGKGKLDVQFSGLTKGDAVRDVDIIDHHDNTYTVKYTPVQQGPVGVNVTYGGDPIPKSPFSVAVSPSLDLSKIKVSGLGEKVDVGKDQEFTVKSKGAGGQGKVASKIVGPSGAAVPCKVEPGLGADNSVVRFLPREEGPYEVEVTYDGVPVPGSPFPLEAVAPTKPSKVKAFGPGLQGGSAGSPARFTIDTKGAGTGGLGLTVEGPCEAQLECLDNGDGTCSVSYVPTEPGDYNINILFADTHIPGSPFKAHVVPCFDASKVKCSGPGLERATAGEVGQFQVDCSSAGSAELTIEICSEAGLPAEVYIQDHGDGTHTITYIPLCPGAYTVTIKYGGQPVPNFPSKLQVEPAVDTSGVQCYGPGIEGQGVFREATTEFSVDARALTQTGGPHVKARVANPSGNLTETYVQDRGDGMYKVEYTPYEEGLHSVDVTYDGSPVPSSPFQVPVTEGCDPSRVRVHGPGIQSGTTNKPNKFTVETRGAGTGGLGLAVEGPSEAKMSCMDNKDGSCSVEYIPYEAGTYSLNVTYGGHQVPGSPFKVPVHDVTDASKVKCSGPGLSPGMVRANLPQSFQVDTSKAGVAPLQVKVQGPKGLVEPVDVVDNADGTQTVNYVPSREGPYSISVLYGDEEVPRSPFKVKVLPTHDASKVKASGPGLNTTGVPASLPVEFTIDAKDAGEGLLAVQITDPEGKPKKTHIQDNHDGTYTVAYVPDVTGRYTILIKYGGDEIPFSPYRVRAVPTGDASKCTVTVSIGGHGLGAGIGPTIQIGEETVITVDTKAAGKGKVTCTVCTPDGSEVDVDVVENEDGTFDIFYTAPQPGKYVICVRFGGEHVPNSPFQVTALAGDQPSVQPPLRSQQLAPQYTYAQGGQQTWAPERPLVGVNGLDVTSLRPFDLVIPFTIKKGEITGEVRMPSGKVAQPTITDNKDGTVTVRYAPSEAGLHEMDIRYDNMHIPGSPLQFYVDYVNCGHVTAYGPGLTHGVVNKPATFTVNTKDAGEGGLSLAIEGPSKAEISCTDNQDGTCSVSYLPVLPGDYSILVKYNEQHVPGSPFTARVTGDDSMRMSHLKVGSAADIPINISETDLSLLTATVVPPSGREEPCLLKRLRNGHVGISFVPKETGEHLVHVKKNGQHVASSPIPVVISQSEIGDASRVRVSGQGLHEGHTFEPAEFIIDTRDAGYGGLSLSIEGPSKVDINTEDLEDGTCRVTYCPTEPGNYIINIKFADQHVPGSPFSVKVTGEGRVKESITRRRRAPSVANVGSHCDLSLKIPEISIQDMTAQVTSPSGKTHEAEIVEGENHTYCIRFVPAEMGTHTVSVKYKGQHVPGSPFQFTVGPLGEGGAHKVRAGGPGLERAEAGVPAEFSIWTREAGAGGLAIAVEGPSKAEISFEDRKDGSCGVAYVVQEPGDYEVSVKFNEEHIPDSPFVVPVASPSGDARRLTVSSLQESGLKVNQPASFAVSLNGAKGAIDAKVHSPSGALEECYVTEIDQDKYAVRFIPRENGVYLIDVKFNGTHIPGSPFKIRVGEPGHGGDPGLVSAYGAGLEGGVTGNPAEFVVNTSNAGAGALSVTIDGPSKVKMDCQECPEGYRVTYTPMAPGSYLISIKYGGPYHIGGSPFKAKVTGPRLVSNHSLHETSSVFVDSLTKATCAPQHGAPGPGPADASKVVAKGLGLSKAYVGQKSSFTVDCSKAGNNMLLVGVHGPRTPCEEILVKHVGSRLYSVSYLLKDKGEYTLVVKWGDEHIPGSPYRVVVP
UniProt Q8BWW4: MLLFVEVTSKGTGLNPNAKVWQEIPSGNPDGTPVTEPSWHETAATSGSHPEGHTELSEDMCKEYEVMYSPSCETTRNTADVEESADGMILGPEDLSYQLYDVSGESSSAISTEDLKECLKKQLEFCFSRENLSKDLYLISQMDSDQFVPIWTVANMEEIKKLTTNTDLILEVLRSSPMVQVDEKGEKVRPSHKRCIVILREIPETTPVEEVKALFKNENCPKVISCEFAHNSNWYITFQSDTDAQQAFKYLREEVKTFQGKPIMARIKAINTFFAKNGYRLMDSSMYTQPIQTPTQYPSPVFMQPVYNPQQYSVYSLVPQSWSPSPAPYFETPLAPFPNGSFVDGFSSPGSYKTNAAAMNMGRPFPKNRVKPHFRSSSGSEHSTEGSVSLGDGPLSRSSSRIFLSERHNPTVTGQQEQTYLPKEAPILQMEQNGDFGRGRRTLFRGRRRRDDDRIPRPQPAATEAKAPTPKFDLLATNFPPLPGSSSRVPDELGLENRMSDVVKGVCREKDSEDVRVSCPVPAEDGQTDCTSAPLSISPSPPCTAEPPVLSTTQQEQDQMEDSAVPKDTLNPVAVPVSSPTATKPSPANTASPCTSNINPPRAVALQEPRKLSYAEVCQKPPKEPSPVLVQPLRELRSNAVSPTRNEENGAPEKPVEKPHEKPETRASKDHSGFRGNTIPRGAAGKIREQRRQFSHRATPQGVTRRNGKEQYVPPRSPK
endogenous mouse Larp4 (La-related protein 4) of MEF cells (Q8BWW4, form named): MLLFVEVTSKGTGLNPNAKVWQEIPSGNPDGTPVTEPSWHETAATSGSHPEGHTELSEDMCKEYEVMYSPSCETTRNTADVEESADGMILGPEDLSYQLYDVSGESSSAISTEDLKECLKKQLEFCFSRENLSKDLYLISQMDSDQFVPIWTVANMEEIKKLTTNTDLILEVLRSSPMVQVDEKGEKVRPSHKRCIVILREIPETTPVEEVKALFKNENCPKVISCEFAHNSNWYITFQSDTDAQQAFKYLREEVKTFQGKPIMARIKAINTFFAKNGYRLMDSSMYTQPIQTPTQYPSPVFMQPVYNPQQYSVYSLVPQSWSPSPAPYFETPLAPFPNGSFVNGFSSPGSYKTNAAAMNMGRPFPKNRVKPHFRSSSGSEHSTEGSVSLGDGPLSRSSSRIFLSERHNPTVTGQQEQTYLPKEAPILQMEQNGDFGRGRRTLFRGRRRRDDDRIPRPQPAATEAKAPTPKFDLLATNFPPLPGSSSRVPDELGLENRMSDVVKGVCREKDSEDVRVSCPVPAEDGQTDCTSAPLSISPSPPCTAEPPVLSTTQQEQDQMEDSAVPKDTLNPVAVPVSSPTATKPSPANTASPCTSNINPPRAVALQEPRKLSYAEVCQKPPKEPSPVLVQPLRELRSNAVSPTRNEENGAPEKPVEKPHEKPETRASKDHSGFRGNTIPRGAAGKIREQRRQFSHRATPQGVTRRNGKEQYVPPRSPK

No constants are given. Whether binding was seen depends on the method and setting. In cells and extracts the contact can be indirect.

Turning to “endogenous mouse Larp4 (La-related protein 4) of MEF cells (from UniProt Q8BWW4 1-719)”, the binding entry is given as “no binding”.

The record behind these values is paper PMC10164935.
